Measured values: patent US20250282834A1, “PEPTIDE INHIBITORS FOR CHROMODOMAIN HELICASE DNA BINDING PROTEIN 4 (CHD4)” (THE REGENTS OF THE UNIVERSITY OF CALIFORNIA, priority 2022, published 2025)
Results are given in words; binding and its absence hold for the method and conditions named. In cells and extracts the contact can be indirect. Some binding calls cover weakened binding; strength is not graded here.

Sequences of proteins named here, by UniProt entry; tags and fusion partners are left off.
UniProt Q14839: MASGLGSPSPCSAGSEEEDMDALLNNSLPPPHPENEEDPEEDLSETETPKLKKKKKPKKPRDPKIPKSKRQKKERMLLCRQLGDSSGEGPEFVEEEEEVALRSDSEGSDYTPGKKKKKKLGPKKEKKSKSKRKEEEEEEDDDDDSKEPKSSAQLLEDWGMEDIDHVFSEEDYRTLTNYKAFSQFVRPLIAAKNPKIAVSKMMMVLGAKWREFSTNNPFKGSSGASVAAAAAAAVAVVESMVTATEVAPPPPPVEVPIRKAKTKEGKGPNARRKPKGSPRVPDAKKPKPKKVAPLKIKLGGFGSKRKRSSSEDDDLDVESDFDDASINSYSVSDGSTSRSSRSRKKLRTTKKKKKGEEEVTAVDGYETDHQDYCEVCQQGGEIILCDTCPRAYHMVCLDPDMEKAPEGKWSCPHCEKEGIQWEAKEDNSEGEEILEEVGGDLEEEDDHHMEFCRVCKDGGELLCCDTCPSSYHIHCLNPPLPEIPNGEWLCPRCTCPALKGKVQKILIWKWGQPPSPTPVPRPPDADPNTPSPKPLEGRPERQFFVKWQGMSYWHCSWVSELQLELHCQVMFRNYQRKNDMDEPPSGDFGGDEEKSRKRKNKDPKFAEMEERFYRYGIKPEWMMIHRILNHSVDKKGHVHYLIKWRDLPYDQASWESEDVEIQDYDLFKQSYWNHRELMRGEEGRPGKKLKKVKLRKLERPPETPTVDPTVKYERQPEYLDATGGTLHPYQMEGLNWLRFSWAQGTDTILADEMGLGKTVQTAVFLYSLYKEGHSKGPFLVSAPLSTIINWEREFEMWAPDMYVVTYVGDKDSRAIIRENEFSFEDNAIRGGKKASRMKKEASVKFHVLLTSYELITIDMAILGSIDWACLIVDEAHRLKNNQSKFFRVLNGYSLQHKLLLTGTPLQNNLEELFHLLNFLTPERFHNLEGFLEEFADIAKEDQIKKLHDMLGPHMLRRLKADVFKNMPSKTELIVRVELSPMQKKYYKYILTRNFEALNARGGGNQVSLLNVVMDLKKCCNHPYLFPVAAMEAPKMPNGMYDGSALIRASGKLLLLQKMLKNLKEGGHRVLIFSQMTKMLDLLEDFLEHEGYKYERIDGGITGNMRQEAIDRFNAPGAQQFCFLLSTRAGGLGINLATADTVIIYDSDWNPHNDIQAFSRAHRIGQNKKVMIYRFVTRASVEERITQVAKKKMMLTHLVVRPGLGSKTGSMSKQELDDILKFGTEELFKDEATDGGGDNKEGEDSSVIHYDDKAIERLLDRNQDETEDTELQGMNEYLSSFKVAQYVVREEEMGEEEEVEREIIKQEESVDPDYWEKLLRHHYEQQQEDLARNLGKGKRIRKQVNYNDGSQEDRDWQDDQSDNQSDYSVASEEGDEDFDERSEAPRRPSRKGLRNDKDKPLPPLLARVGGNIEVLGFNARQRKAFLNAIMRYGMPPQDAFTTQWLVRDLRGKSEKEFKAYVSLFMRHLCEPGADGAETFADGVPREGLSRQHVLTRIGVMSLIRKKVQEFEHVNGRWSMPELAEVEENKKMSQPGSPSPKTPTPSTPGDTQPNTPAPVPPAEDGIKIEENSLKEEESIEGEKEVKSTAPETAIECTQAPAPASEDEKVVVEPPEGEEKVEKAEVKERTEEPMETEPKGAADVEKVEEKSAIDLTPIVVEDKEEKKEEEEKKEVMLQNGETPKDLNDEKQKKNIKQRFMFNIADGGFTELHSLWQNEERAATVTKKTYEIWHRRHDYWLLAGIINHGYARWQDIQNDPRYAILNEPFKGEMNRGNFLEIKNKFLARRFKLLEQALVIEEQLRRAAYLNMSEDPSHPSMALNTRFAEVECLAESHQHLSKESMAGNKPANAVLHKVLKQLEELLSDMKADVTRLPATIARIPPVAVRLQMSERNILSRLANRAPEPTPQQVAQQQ

Molecular target: full-length Flag-CHD4 (chromodomain helicase DNA-binding protein 4) (UniProt Q14839)
Assay: peptide pull-down: 100 nM purified Flag-CHD4 with 1 µg N-biotinylated peptide, anti-Flag immunoblot

KFAVIFWGNDPYGLKKLSQAFQFGGVK (N-terminal biotin) [#10] was tested, and the binding was “binds”.
